Laboratory results published in US20230293485A1, “APPLICATION OF ARTEMISININ COMPOUND IN TREATMENT OF CORONAVIRUS INFECTION” (ACADEMY OF MILITARY MEDICAL SCIENCES, priority 2020, published 2023).
Like-named read-outs stand apart in the source and are kept apart here. At least one compound was matched to its structure with a doubt left.

Test system: SARS-CoV-2
Format: cell-based
Conditions: for Inhibitory activity on viral RNA load: dependence on dose (in words) / Viral nucleic acid load in vero E6 cells infected with SARS-CoV-2 (in words): 48 h after infection

SMILES: CO[C@H]1O[C@@H]2O[C@@]3(C)CC[C@H]4[C@H](C)CC[C@@H]([C@H]1C)[C@@]24OO3 [artemether]
- Inhibitory activity on viral RNA load: dependence on dose (in words): dose-dependent
- Viral nucleic acid load in vero E6 cells infected with SARS-CoV-2 (in words): effectively reduced viral nucleic acid load
- Inhibition of replication of SARS-CoV-2 virus genome in the infection supernatant (in words) (at 200 μM, 100 μM, 50 μM and 25 μM): effectively inhibit

SMILES: C[C@H]1[C@@H](O)O[C@@H]2O[C@@]3(C)CC[C@H]4[C@H](C)CC[C@@H]1[C@@]24OO3 [dihydroartemisinin]
- Inhibitory activity on viral RNA load: dependence on dose (in words): dose-dependent
- Viral nucleic acid load in vero E6 cells infected with SARS-CoV-2 (in words): effectively reduced viral nucleic acid load
- Inhibition of replication of SARS-CoV-2 virus genome in the infection supernatant (in words) (at 25 μM, 12.5 μM and 6.25 μM): effectively inhibit
